Reference: article PMC8917221

What was measured:
[1] = biological target: Bmc1 PrA (S. pombe Bin3/MePCE homolog Bmc1, protein A-tagged at the genomic locus) (S. pombe); experiment: co-IP; as a3, with benzonase treatment
[2] = biological target: Bmc1 PrA (S. pombe Bin3/MePCE homolog Bmc1, protein A-tagged at the genomic locus) (S. pombe); experiment: co-IP; as a3, in a TER1 knockout strain
[3] = biological target: Bmc1 PrA (S. pombe Bin3/MePCE homolog Bmc1, protein A-tagged at the genomic locus) (S. pombe); experiment: co-IP; S. pombe lysate in Co-IP lysis buffer (10 mM Tris HCl pH 7.5, 150 mM NaCl, 0.5% NP40); western blots with anti-myc and anti-Protein A

Measured: binding

B1: Pof8-myc (protein, UniProt O13795 1-402)
chain: MFVPRQLNVRKIKAFTGKENNSIADGNNNKLKDEHYKHNEASKEPSHSISGGLMLNQQDRQLIEPLNPDFLSAVDSILEIYFHRERQKEKVHLAFLIQQDDFWKGIRPNPTQNNLKYALSYVTNALFHFDNSSHMVIRNENIVLPLDIPLYDRIIYVEPVPATLSNKSLLLAGKLRKYLKEFLPYVDAIGTPEGYAFVILYKKVDQSALSKLPVPPGWVLLTRKEWTNREEKYFENQLHLVKASSSDVSNSSNSFPENRYPKLTKVEKQMTKSVSKTSQTDKDEDNLDFTKNLLTRIKNLHPLTNKSTIHSLLSYVFSRQTQNIACEPMYIDYRKDETEAIIRWKTPLHAETCINAFRTQERKQNSHDDIRAHRKKGSSRPFLIAELITGEEEKNYWRMLKK
binds: all assays above

Results are given in words; binding and its absence hold for the method and conditions named. Binding seen in cells or lysates may run through a third protein. Binding calls can cover weak binding; strength is not graded here. Where a sequence is shown, tags or fusion partners need not be part of it.
